PubChem BioAssay AID1224830, NIAID, 2016
Test: 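Genes whose knock-down alters the TNF-alpha reporter response to LPS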 (primary screen). Cells: human THP-1 monocytic leukaemia cells, TNF dual-luciferase reporter clone, PMA-differentiated to macrophage-like cells. Reagents: siRNA pool against human genes, 50 nM. Time to read-out: LPS for 4 h, given about 3 days after siRNA transfection. Conditions: bacterial LPS (TLR4 ligand), 10 ng/ml. Measurement: 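Ratio of firefly to renilla light, scaled to the plate median and expressed as a robust z-score per replicate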. Scale: TNF reporter robust z-score: higher = stronger TNF reporter response to LPS. Call rule: 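Each well counts as active if its z-score is over 2.8 or under -1.5; controls are left without a call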.
This is a random part of about 18,000 deposited reagents. Over the whole deposit, about 2,900 (16%) got an active call. 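Calls are made per well; low scores hint the gene aids the LPS response, high scores that it dampens it.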 Repeated entries: four replicate wells of each siRNA pool.

Gene | TNF reporter robust z-score | activity call
UNC13C | 1.46 | inactive
UNC13C | 0 | inactive
UNC13C | 0.43 | inactive
UNC13C | 0.65 | inactive
DEFA6 | -0.08 | inactive
DEFA6 | 1.37 | inactive
DEFA6 | 1.72 | inactive
DEFA6 | 0.51 | inactive
KLF3 | 0.53 | inactive
KLF3 | 0.1 | inactive
KLF3 | 0.04 | inactive
KLF3 | 1.1 | inactive
OR5B17 | -0.77 | inactive
OR5B17 | -0.88 | inactive
OR5B17 | -0.97 | inactive
OR5B17 | -1.04 | inactive
ZIM3 | -0.73 | inactive
ZIM3 | 1.07 | inactive
ZIM3 | -1.08 | inactive
ZIM3 | 1.1 | inactive
SNX8 | 0.24 | inactive
SNX8 | -1.01 | inactive
SNX8 | 0.16 | inactive
SNX8 | -0.82 | inactive
SYN3 | 1.23 | inactive
SYN3 | 2.12 | inactive
SYN3 | -0.77 | inactive
SYN3 | -0.72 | inactive
PRSS42P | 1.08 | inactive
PRSS42P | -0.3 | inactive
PRSS42P | 0.85 | inactive
PRSS42P | 1.41 | inactive
CYP2F1 | 1.5 | inactive
CYP2F1 | -0.3 | inactive
CYP2F1 | 0.83 | inactive
CYP2F1 | 0.81 | inactive
SLC6A14 | -1.66 | active
SLC6A14 | -1.76 | active
SLC6A14 | -1.52 | active
SLC6A14 | -1.29 | inactive
TWIST2 | -1.5 | inactive
TWIST2 | -1.59 | active
TWIST2 | -1.3 | inactive
TWIST2 | -0.96 | inactive
CLEC4A | -1.7 | active
CLEC4A | -1.28 | inactive
CLEC4A | -1.95 | active
CLEC4A | -2.01 | active
S100G | -0.15 | inactive
S100G | -0.6 | inactive
S100G | 0.2 | inactive
S100G | -0.24 | inactive
TERT | 2.29 | inactive
TERT | 0.12 | inactive
TERT | -0.42 | inactive
TERT | -0.08 | inactive
MED11 | -0.21 | inactive
MED11 | -0.29 | inactive
MED11 | -0.81 | inactive
MED11 | 0.24 | inactive
COPS7B | 0 | inactive
COPS7B | 0.38 | inactive
COPS7B | 1.64 | inactive
COPS7B | 1.68 | inactive
VPS54 | -1.34 | inactive
VPS54 | -1.55 | active
VPS54 | -1.71 | active
VPS54 | -1.57 | active
MAP3K5 | -0.2 | inactive
MAP3K5 | 0.17 | inactive
MAP3K5 | 0.09 | inactive
MAP3K5 | -0.02 | inactive
ELL | -1.19 | inactive
ELL | -1.2 | inactive
ELL | -0.93 | inactive
ELL | -1.08 | inactive
CUEDC2 | -0.18 | inactive
CUEDC2 | 0.37 | inactive
CUEDC2 | -0.07 | inactive
CUEDC2 | 0.13 | inactive
SLC22A23 | 0.41 | inactive
SLC22A23 | -0.21 | inactive
SLC22A23 | -0.1 | inactive
SLC22A23 | 0.28 | inactive
RPS15A | -0.01 | inactive
RPS15A | 0.08 | inactive
RPS15A | 1.77 | inactive
RPS15A | 2.67 | inactive
RCC2 | 0.55 | inactive
RCC2 | 1.65 | inactive
RCC2 | -0.07 | inactive
RCC2 | 1.81 | inactive
FKBP7 | 0.03 | inactive
FKBP7 | 1.66 | inactive
FKBP7 | 1.83 | inactive
FKBP7 | 3.84 | active
UBALD2 | -1.13 | inactive
UBALD2 | -1.12 | inactive
UBALD2 | -1.06 | inactive
UBALD2 | 0.83 | inactive
STK33 | 0.03 | inactive
STK33 | 0.57 | inactive
STK33 | -0.26 | inactive
STK33 | 0.49 | inactive
STXBP6 | -0.01 | inactive
STXBP6 | 0.81 | inactive
STXBP6 | 1.64 | inactive
STXBP6 | 0.21 | inactive
BEX2 | -0.47 | inactive
BEX2 | 0 | inactive
BEX2 | 0.24 | inactive
BEX2 | -0.27 | inactive

Hits (from the list above):
Gene | TNF reporter robust z-score | activity call
SLC6A14 | -1.66 | active
SLC6A14 | -1.76 | active
SLC6A14 | -1.52 | active
TWIST2 | -1.59 | active
CLEC4A | -1.7 | active
CLEC4A | -1.95 | active
CLEC4A | -2.01 | active
VPS54 | -1.55 | active
VPS54 | -1.71 | active
VPS54 | -1.57 | active
FKBP7 | 3.84 | active
